Results: PubChem BioAssay AID2662 (National Center for Advancing Translational Sciences (NCATS), 2010)
Screen size: about 290,000 compounds; about 110 (0.038%) were called active. Inconclusive means that the source gave no clear call. Such entries were picked first, then a sample of the others. Calls follow the shape of the dose curve; as a rule, active = well fitted inhibition curve with a large enough effect in the polarisation, with a control signal flat (not every such curve was filed as active); inconclusive = small, poorly fitted or top-dose-only effect, or effect the other way, or a change in a side signal; inactive = no such curve, though single readings can be large or run the other way; the % refers to the polarisation. Where the call is inconclusive, the potency comes from a doubtful curve fit. “Side channel” marks fits to a control or component signal instead of the main read-out.

Sequences of proteins named here, by UniProt entry; tags and fusion partners are left off.
UniProt Q03164, whole entry, looked up: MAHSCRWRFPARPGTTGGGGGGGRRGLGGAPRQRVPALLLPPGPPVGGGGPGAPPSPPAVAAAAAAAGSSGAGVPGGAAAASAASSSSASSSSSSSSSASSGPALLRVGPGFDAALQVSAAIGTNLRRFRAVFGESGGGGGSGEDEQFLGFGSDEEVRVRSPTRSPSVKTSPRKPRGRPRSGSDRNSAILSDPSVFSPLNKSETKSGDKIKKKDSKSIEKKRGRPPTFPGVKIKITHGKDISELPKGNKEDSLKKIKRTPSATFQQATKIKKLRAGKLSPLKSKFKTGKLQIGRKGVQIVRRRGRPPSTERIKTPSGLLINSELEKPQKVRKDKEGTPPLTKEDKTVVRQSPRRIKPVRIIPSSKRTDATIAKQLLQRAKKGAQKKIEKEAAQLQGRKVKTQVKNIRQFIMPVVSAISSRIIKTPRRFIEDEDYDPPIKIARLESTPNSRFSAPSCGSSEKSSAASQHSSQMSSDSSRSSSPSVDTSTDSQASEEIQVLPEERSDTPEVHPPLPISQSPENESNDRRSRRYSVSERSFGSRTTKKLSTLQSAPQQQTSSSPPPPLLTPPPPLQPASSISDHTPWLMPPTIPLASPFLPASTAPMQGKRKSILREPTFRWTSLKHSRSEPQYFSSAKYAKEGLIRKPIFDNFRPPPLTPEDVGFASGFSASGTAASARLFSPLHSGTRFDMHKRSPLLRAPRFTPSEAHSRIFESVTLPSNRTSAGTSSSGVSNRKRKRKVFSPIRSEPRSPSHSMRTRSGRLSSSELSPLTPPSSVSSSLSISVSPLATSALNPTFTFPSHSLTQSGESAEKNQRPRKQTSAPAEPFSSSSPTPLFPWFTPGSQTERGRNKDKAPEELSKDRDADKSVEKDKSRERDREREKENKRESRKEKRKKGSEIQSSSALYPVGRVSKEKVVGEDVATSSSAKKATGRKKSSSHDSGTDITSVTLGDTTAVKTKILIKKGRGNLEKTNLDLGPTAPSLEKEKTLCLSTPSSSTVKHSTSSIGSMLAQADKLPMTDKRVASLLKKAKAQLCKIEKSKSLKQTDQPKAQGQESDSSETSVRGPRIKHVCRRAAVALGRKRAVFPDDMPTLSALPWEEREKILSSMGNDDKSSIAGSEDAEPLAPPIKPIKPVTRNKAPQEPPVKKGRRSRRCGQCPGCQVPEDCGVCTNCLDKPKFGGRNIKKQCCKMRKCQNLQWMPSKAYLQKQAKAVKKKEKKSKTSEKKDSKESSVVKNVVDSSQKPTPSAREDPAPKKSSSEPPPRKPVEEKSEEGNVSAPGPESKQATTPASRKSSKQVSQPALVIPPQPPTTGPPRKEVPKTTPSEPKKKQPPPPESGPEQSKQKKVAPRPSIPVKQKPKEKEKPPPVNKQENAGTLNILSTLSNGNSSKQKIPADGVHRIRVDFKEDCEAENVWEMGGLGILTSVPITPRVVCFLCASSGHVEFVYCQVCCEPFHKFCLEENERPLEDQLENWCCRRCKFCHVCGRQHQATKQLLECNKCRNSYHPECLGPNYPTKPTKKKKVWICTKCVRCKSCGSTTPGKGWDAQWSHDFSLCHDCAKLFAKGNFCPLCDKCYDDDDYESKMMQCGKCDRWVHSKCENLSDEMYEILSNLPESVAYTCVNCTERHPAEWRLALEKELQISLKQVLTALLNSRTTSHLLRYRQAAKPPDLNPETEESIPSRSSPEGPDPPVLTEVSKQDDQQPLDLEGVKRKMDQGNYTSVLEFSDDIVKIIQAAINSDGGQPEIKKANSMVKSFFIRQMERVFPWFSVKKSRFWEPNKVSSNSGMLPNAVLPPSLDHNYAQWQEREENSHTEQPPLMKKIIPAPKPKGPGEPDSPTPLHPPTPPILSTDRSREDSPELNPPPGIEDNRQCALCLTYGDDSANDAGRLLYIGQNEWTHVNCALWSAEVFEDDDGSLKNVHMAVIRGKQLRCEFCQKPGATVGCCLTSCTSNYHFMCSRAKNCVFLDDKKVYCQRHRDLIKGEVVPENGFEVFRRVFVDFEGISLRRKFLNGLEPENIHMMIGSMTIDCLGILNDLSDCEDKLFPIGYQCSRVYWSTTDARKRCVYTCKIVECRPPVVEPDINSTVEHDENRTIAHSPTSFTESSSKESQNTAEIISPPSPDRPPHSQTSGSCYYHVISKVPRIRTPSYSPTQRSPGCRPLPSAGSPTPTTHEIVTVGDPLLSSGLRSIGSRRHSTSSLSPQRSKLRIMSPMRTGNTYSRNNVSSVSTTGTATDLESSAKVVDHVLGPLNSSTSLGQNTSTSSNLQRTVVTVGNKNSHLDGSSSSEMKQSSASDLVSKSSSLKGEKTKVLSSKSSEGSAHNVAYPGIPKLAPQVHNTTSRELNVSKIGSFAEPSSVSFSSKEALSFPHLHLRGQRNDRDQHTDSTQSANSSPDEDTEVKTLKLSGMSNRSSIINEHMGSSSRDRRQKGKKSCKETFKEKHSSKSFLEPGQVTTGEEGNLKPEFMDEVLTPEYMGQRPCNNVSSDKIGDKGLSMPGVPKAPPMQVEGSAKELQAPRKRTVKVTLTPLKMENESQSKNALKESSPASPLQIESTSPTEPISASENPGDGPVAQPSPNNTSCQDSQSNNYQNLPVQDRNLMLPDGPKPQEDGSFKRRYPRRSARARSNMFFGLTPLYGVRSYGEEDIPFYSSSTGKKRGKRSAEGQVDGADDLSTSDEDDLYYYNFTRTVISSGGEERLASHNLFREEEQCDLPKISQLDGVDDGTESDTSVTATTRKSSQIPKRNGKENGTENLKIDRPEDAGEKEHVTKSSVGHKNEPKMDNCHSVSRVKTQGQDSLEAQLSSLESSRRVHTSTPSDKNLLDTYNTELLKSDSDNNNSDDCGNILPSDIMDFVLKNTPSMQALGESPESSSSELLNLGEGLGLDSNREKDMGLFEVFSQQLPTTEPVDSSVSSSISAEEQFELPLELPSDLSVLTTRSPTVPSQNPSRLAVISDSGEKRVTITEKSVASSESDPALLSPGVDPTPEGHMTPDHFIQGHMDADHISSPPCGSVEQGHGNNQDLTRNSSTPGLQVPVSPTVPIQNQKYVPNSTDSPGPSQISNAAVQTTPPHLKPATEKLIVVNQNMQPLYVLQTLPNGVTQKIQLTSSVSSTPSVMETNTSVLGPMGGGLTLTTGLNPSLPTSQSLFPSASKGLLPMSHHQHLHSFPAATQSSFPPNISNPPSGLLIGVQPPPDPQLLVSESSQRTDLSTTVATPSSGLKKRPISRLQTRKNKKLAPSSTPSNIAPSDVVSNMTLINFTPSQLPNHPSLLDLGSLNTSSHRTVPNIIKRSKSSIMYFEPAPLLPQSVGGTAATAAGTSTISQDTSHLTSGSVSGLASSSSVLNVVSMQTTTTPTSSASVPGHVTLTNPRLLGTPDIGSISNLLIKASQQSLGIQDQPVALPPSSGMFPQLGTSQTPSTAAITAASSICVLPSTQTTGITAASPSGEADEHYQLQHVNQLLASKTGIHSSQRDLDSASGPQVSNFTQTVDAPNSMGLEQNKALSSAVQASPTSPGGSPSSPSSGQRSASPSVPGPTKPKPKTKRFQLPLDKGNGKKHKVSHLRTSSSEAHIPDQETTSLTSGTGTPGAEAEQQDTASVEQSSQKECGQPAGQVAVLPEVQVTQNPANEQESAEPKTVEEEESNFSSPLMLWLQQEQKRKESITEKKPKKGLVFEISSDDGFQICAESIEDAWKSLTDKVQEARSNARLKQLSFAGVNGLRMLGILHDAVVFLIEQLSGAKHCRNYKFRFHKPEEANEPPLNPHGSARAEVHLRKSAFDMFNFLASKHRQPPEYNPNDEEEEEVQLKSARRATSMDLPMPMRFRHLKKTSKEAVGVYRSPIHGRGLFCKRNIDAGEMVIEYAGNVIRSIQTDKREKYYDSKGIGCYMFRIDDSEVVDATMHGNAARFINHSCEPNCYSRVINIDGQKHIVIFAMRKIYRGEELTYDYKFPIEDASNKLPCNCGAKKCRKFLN

target: Histone-lysine N-methyltransferase 2A (Homo sapiens) (UniProt Q03164); assay: qHTS Fluorescence Polarization Assay for Inhibitors of MLL CXXC domain - DNA interaction; conditions: MLL-CXXC / FITC-HOXA9 DNA fluorescence polarization; activity change, negative = inhibition: at 115 µM (top of the series)
Method in brief: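 Steps: dispense CXXC domain solution (7 uM) → pin compounds or unlabeled HOX-A9 DNA control → 5 min ambient → add FLSN-HOX-A9 solution (50 nM) → spin → 30 min ambient → fluorescence polarization. Tris pH 7.5/NaCl/DTT/BSA buffer.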
Potency is read from the fitted curve at half-maximal effect.

Row | Structure (SMILES) | Potency | activity change, negative = inhibition
1 | N#C/C(=C\c1ccc(N2CCOCC2)o1)C(=O)NC1CCCCC1 | inconclusive: 31.6 µM [fluorescent, side channel, partial curve] | –
2 | Cc1ccccc1C(=O)NCc1nnc(SCC(=O)N2c3ccccc3Sc3ccccc32)n1C | inconclusive: 10 µM [quencher, side channel, single point] | –
3 | Cc1ccc(C(=O)NNC(=S)NC(=O)c2ccc(Cl)cc2Cl)cc1 | inconclusive: 31.6 µM [inhibitor, single point] | –
4 | COc1ccc(S(=O)(=O)Nc2nc3n(n2)C(c2ccc(Cl)cc2)CC(=O)N3)cc1 (stereo unspecified) | inconclusive: 89.1 µM [fluorescent, side channel, single point] | –
5 | N#Cc1c(NC(=O)c2ccccc2Cl)n(Cc2ccccc2)c2nc3ccccc3nc12 | inconclusive: 35.5 µM [fluorescent, side channel, single point] | –
6 | CCOc1ccc(-n2c(=O)c3c(C)c(C)sc3n(CC(=O)NCc3ccco3)c2=O)cc1 | inconclusive: 70.8 µM [inhibitor, single point] | –
7 | CCOc1cc(/C=C/c2nc3ccccc3s2)ccc1OCC(=O)N1CCOCC1 | inconclusive: 7.94 µM [quencher, side channel, full curve, poor fit] | –
8 | O=C(c1ccc(Cl)cc1)C(Cn1cncn1)C(Sc1ccccc1)c1ccccc1 (stereo unspecified) | inconclusive: 1.58 µM [quencher, side channel, full curve] | –
9 | N#CNC(=Nc1ccc(Cl)cc1)Oc1ccccc1 | inconclusive: 3.98 µM [inhibitor, full curve, poor fit] | –
10 | COc1ccc(C(=O)C[n+]2ccccc2C)cc1 | inconclusive: 1.26 µM [fluorescent, side channel, partial curve, poor fit] | –
11 | Nc1ccc(-c2c3ccc(=O)cc-3oc3cc(O)ccc23)cc1C(=O)O | inconclusive: 7.94 µM [fluorescent, full curve] | –
12 | Cc1oc2c(c1C(=O)c1ccccc1)C(=O)C(=O)c1ccccc1-2 | inconclusive: 10 µM [inhibitor, full curve] | –
13 | COc1cc(/C=C2/SC(=S)N(Cc3ccccc3)C2=O)cc(Cl)c1O | inconclusive: 10 µM [fluorescent, side channel, partial curve] | –
14 | Cc1ccc(NC(=O)CCCNC(=O)c2ccc(Cl)cc2)c(O)c1 | inconclusive: 28.2 µM [fluorescent, side channel, partial curve] | –
15 | NS(=O)(=O)c1ccc(NC(=O)c2cc(-c3cc(Cl)ccc3O)n[nH]2)cc1 | inconclusive: 1.41 µM [quencher, side channel, full curve, poor fit] | –
16 | Fc1ccc(NCc2cccnc2)cc1F | inconclusive: 8.91 µM [fluorescent, side channel, partial curve, poor fit] | –
17 | COc1ccc(/C=C/c2nnc(NC(=O)COc3ccc(C)cc3)s2)cc1 | – | inactive: 13.6%
18 | Cc1ccc(C(=O)NCCc2ccncc2)cc1 | – | inactive: -7.73%

Some of the entries above, set out differently.
Cc1ccc(C(=O)NNC(=S)NC(=O)c2ccc(Cl)cc2Cl)cc1
  Potency: inconclusive: 31.6 µM [inhibitor, single point]
O=C(c1ccc(Cl)cc1)C(Cn1cncn1)C(Sc1ccccc1)c1ccccc1 (stereo unspecified)
  Potency: inconclusive: 1.58 µM [quencher, side channel, full curve]

Following part:

Row | Structure (SMILES) | Potency | activity change, negative = inhibition
19 | Cc1[nH]n(C2=NCCS2)c(=O)c1N=Nc1cccc(C(F)(F)F)c1 | inconclusive: 14.1 µM [inhibitor, partial curve] | –
20 | O=C(CCNC(=O)c1ccccc1Cl)Nc1cc(C(F)(F)F)ccc1N1CCCC1 | inconclusive: 8.91 µM [quencher, side channel, single point] | –
21 | NNC(=S)NCc1ccco1 | inconclusive: 14.1 µM [fluorescent, side channel, single point] | –
22 | CCCCCN1C=CC=C/C1=C\C=C(C#N)C#N | inconclusive: 31.6 µM [fluorescent, side channel, single point] | –
23 | CCOCCCNC(=O)CS(=O)(=O)Cc1nc(-c2cccc(OC)c2)oc1C | – | inactive: -4.57%
24 | COc1cc(C(C(=O)NC2CCCC2)N(C(=O)c2snc(C(N)=O)c2N)c2ccccc2)cc(OC)c1OC (stereo unspecified) | – | inactive: 13.6%
25 | COc1cc(/C=N/Nc2ccnc(=O)[nH]2)ccc1O | inconclusive: 14.1 µM [fluorescent, side channel, single point] | –
26 | CN1C(=O)/C(=C/c2ccco2)SC1=Nc1cccc(C(=O)O)c1 | inconclusive: 35.5 µM [fluorescent, side channel, partial curve] | –
27 | CC(=O)Nc1ccc(NC(=O)C(C)OC(=O)c2ccccc2NS(=O)(=O)c2cccs2)cc1 (stereo unspecified) | inconclusive: 15.8 µM [inhibitor, single point] | –
28 | CC1CN(c2nc3ccccc3nc2C(C#N)C(=O)NC2CCCCC2)CC(C)O1 (stereo unspecified) | inconclusive: 31.6 µM [fluorescent, side channel, partial curve] | –
29 | COc1ccc(CCN2C(=O)CC(Cc3ccc(Br)cc3)C2=O)cc1OC (stereo unspecified) | inconclusive: 10 µM [inhibitor, single point] | –
30 | CN(C)c1cccc(C(=O)OCC(=O)Nc2ccccc2Cl)c1 | inconclusive: 7.94 µM [fluorescent, side channel, full curve] | –
31 | O=C(Nc1ccc(C2=NCCN2)cc1)c1ccc(C(=O)Nc2ccc(C3=NCCN3)cc2)c([N+](=O)[O-])c1 | inconclusive: 20 µM [quencher, side channel, partial curve] | –
32 | Cc1ccc(C(=O)N/C(=C\c2ccc(-c3cccc([N+](=O)[O-])c3)o2)C(=O)NCCCN(C)C)cc1 | inconclusive: 31.6 µM [quencher, side channel, partial curve] | –
33 | Oc1cccc(/C=N/NC(=S)NCCN2CCOCC2)c1O | inconclusive: 15.8 µM [inhibitor, single point] | –
34 | O=C(O)c1ccc(N2C(=O)CC(N3C(=O)/C(=C/c4ccc(Cl)cc4)SC3=S)C2=O)cc1 (stereo unspecified) | inconclusive: 5.62 µM [inhibitor, full curve] | –
35 | CCOC(=O)CC1C(=O)NCCN1c1nc2ccc(C)cn2c(=O)c1/C=C1\SC(=S)N(CC(C)C)C1=O (stereo unspecified) | inconclusive: 17.8 µM [fluorescent, side channel, partial curve] | –
36 | CC1CCN(Cc2c(C(=O)N/N=C/c3cc(Cl)ccc3O)nnn2-c2nonc2N)CC1 | inconclusive: 11.2 µM [quencher, side channel, partial curve] | –
